{"source": "PubChem BioAssay AID1508600", "about": "(Functional Genomics Laboratory (NCATS/FGL), 2020)", "note": "About 3,700 (7%) of roughly 53,000 sequences were called active.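 The calls were made as follows: active = gene knockdowns whose robust z-score for IL-1 alpha signal is at least 2 or at most -2, so actives lie on both sides; inactive = the rest.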 The list shows a part of the results.", "data": [{"assay": "Components of the Cytosolic LPS Sensing Pathway: Gene Identification via Genome-wide siRNA Screen;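 also: robust z of the log signal after scaling to non-targeting control siRNA wells of the plate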", "details": "RAW264.7 macrophages, IL-1a HTRF, actives lie on both sides, screened at 100 nM (by protocol), cells primed 5 h with Pam3CSK4 first", "summary_of_the_method": "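Mouse macrophage line RAW264.7 is transfected with siRNA (100 nM final), grown 48h, primed with TLR ligand Pam3CSK4 5 h and given intracellular LipidA 24 h. IL-1a in supernatant is read by HTRF and viability by luminescence.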", "values": [{"sequence": "GGUGCCAAUCCUUUGGACATT against 4930590J08Rik", "z-score": "active: 3"}, {"sequence": "GGCCUGCUAUAUGCAUUCCTT against Krtap12-1", "z-score": "inactive: 0.974"}, {"sequence": "GCUUUUCAGUAACUGUCAGTT against Ccrl2", "z-score": "inactive: -0.376"}, {"sequence": "GGACAAUGAGCUUGAAUACTT against Ccne1", "z-score": "inactive: -0.274"}, {"sequence": "GGUGACCACUUUUAUCUGATT against Olah", "z-score": "inactive: 0.601"}, {"sequence": "CCUCUUAGCUAGAUCUUACTT against Smu1", "z-score": "active: -2.41"}, {"sequence": "CCUUAGGAUGACCUAAGGGTT against Bsdc1", "z-score": "inactive: -0.744"}, {"sequence": "GGUACUGGAGGGACUUAGATT against Apobr", "z-score": "inactive: -1.98"}, {"sequence": "GCCUUGAACUAUGCAUAGATT against Eno2", "z-score": "inactive: 1.7"}, {"sequence": "CCUGGUCACUCCAAACCCATT against Zfp950", "z-score": "active: -2.11"}, {"sequence": "CCCAGUGUACUUGUCAUUUTT against Rhob", "z-score": "inactive: 0.711"}, {"sequence": "ACCCUCAAUGAUUCAGGAATT against Olfr1344", "z-score": "inactive: 1.79"}, {"sequence": "GUGAUAAACCUGGGACACATT against Lyl1", "z-score": "inactive: -0.0379"}, {"sequence": "GGGACAAAAUGUGAAGACUTT against Reg3b", "z-score": "inactive: 1.53"}, {"sequence": "CCAAAAACUGGGAGUUCGUTT against Olfr513", "z-score": "inactive: -1.41"}, {"sequence": "CGGAAGAUGUUAAAACUAUTT against Slc44a3", "z-score": "inactive: -1.33"}, {"sequence": "CCUCUAAAUAGAGGAUAAGTT against Zfp467", "z-score": "inactive: -0.203"}, {"sequence": "GCCUCUCGUGAAGAACAUATT against Cdkl1", "z-score": "inactive: -0.138"}, {"sequence": "GCUCCACUGAUACUGUUGUTT against Cyp4a10", "z-score": "inactive: -0.831"}, {"sequence": "GGGCUACGAUGUGGAGUUUTT against Traf6", "z-score": "inactive: -0.777"}, {"sequence": "GGAUUUGGCUUUGUAACUUTT against Hnrnpa2b1", "z-score": "inactive: 0.968"}, {"sequence": "CGUGAAUGAGUCUAUACUGTT against Nop10", "z-score": "inactive: 0.609"}, {"sequence": "GCCCAUGGAUACAGAAACUTT against Alpk3", "z-score": "inactive: -0.852"}, {"sequence": "CCACAUGUCCAAUCAGAAUTT against Eef2k", "z-score": "inactive: 0.289"}, {"sequence": "GGAAGGACUAUUUUCUUUCTT against Trak1", "z-score": "inactive: 1.5"}, {"sequence": "GCGUCAAAAUUAUCCGAAATT against Trnau1ap", "z-score": "inactive: 0.124"}, {"sequence": "CGUACCACACGAUGAAUAGTT against Pou4f1", "z-score": "inactive: -0.525"}, {"sequence": "CCGAUUCGUUGGUAUUAACTT against Zadh2", "z-score": "inactive: -0.0878"}, {"sequence": "GGACCUUCUUCUGUCCCUUTT against Ceacam19", "z-score": "inactive: 0.134"}]}]}
